Laboratory results reported in article PMC6851183, “Computational design and characterization of nanobody-derived peptides that stabilize the active conformation of the β2-adrenergic receptor (β2-AR)” (Scientific Reports, 2019).
Results are given in words; binding and its absence hold for the method and conditions named. Some results given as binding are weak or reduced against the parent protein; the word gives no strength.

Molecular target: C-terminal Renilla luciferase 8 (RLuc8) tagged HAβ2-AR (β2-AR/RLuc8) (human) (UniProt P07550)
Experiment: circular dichroism; lysate of β2-AR/Rluc8-transfected HEK-293 cells preincubated with isoproterenol (1 µM in the legend, 10 µM in the methods), titrated with P3 at 5, 10, 20, 30 µM; PBS pH 7.2, 0.1% DMSO, 25 °C; only the binder purified

- binding: binds
Binder: EDTAVYYCNANWDLLSD [P3, nanobody-derived peptide (NDP) of Nb71]
